No constants are given. Whether binding was seen depends on the method and setting. Some entries that bind do so weakly or less than the wild type.

Sequences of proteins named here, by UniProt entry; tags and fusion partners are left off. A change or cut given only in a name is not applied to a line headed by its entry. Residues count along the entry.
UniProt P06756: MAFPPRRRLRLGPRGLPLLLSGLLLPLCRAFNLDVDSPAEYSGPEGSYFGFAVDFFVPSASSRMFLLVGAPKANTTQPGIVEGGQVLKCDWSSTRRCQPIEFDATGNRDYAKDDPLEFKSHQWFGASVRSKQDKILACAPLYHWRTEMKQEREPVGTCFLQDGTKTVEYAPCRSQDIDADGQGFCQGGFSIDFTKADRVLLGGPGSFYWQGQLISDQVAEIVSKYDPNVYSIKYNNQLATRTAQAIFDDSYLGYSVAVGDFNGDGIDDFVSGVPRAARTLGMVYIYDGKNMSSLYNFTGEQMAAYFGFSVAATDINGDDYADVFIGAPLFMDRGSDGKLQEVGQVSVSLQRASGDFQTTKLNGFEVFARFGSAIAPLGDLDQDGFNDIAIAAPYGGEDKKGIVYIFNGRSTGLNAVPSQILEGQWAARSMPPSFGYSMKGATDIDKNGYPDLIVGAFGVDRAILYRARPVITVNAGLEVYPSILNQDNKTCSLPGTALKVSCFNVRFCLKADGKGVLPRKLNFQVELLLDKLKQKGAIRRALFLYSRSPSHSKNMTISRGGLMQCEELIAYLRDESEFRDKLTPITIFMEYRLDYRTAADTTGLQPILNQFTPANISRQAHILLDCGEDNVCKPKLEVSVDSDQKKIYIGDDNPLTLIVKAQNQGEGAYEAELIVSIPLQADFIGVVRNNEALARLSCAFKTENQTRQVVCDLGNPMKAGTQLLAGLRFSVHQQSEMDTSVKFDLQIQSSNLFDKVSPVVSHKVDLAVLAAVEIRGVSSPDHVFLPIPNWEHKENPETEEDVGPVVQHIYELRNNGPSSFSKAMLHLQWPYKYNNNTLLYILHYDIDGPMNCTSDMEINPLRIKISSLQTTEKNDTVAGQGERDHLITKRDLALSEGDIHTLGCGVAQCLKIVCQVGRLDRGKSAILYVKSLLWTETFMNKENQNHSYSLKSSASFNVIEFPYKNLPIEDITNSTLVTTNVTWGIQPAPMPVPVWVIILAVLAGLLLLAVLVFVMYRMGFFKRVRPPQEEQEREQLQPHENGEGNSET
UniProt P08253, residues 445-660: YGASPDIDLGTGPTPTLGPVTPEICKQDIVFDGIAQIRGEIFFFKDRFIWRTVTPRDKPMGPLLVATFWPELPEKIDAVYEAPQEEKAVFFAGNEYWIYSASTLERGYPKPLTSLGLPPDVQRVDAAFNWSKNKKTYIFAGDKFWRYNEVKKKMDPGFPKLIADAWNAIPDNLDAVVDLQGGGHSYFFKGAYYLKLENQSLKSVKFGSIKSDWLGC

One substance from patent US20020025510A1, “Screening methods based on superactivated alpha V beta 3 integrin” (priority 2000, published 2002) can be followed below.

For this test, the target named is integrin αvβ3 with the wild type β3 subunit, on β3-MCF7 cells (human) (UniProt P06756). The test is described as follows: adhesion of cells for 8 hours to PEX coated at 20 µg/ml.

In the case of “recombinant C-terminal domain of MMP-2 (PEX), FLAG-fusion protein (from UniProt P08253 445-660)”, the binding result is given as “binds”.
